Results on one substance are retold here after article PMC10667928.

Amino acid sequences for entries named in this document (tags omitted).
UniProt P32245: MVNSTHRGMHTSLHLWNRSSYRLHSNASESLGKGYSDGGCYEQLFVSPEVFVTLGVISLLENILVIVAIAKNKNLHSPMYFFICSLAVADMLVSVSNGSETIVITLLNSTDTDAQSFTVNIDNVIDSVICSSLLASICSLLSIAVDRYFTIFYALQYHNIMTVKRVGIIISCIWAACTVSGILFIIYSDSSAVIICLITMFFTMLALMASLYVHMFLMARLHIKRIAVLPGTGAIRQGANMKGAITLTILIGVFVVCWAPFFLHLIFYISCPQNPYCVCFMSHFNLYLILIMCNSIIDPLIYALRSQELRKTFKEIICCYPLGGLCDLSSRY

The target of this experiment is human MC4R wild-type (human) (UniProt P32245). The experiment in a line: FRET or BRET; FRET acceptor photobleaching (FRET-AB), intensity-based, on the same fixed HEK293T samples; bleach of mCherry at 594 nm in a membrane region of interest. (In general: BRET reads energy transfer from a luciferase to a nearby fluorophore.)

Results are given in words; binding and its absence hold for the method and conditions named. In cells and extracts the contact can be indirect. Some entries that bind do so weakly or less than the wild type.

“human MC4R wild-type (from UniProt P32245 1-332) (receptor)”: the binding result was “binds”.
